Laboratory results from paper PMC3334993.
No constants are given. Whether binding was seen depends on the method and setting. In cells and extracts the contact can be indirect. Some binding calls cover weakened binding; strength is not graded here.

The chains behind the UniProt entries cited, without tags or fusion partners. Where a name states a change or a piece, a line headed by the entry shows the natural chain unless it says otherwise. A line that says so, or that is headed by a name, gives the form on record, which may keep a tag or linker. Residues count along the entry.
UniProt Q04206: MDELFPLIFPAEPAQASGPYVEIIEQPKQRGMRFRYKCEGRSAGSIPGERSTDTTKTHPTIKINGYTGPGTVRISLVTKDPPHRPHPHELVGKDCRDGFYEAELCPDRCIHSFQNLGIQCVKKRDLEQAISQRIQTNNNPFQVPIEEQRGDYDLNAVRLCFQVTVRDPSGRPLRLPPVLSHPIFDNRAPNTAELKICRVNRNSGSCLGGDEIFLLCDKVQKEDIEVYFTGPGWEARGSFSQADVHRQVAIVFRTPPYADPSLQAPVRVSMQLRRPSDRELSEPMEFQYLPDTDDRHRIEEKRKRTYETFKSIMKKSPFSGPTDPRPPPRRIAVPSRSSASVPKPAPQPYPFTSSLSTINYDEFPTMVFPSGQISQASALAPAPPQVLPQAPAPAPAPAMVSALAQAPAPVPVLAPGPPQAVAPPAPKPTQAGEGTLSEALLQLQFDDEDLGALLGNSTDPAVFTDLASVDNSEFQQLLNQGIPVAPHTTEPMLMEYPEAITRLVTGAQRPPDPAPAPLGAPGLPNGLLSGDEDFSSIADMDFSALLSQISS
UniProt P08670: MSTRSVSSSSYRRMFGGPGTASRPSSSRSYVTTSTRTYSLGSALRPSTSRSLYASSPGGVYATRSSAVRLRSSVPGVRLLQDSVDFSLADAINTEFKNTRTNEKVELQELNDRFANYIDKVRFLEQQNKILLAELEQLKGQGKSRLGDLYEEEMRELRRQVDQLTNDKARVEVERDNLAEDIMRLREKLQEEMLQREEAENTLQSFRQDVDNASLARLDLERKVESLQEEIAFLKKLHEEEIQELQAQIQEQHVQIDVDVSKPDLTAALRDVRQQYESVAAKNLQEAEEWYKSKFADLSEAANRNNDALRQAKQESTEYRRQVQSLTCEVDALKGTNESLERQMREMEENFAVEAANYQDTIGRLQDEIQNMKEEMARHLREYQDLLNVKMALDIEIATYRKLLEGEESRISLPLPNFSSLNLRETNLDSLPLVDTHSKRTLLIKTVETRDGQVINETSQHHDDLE
GFP-VH (vimentin head domain fused to GFP): residues 1-95 of P08670
UniProt P07437: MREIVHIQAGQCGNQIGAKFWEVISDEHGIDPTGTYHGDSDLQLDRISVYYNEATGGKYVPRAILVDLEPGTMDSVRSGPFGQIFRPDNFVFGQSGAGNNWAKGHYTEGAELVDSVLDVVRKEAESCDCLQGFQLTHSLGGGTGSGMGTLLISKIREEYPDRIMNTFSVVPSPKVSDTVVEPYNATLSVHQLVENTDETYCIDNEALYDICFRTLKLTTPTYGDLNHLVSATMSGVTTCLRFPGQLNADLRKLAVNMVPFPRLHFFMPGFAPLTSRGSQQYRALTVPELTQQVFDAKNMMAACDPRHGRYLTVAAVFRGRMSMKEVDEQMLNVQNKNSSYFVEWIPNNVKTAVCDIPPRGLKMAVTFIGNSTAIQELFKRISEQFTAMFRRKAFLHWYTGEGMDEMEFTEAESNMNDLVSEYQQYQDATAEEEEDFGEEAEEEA
UniProt P25963: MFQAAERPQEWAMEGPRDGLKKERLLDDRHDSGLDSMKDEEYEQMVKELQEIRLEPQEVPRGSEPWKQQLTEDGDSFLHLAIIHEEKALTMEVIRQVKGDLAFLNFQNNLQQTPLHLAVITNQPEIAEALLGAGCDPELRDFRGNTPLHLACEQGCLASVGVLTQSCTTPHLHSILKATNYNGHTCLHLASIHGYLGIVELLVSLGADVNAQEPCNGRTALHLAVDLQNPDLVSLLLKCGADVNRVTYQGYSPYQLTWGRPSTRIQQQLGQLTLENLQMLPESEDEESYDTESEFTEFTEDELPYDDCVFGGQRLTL

Experiments:
[1] = target: Transcription factor p65 [NF-κB (p65)] (human (endogenous in HBMEC)) (UniProt Q04206); experiment: co-IP
[2] = target: GFP-VH (vimentin head domain fused to GFP) (human) (UniProt P08670); experiment: co-IP
[3] = target: vimentin (human (endogenous in HBMEC)) (UniProt P08670); experiment: co-IP
His–vimentin (human) = His–vimentin (human) (UniProt P08670); experiment: pull-down; Ni-NTA resin with or without (control) purified native His–vimentin incubated with total cell lysates from HBMEC overnight at 4°C, washed five times; immunoblot for His tag, vimentin (V9) and IκBα; only the target purified

binding [1]	binding [2]	binding [3]	binding (His–vimentin (human))	Substance
binds	–	–	–	vimentin (from UniProt P08670 1-466)
binds	binds	binds	–	Tubulin beta chain [β-tubulin] (from UniProt P07437 1-444)
–	–	binds	binds	NF-kappa-B inhibitor alpha [IκBα] (from UniProt P25963 1-317)
–	binds	binds	–	Transcription factor p65 [NF-κB (p65)] (from UniProt Q04206 1-551)
